Several values for one entry are separate records, joined by “and”; a condition that tells them apart may be missing. Equal entries are not always repeated. Further values from the same series stand in other lists.
Test system: collagen-induced arthritis
Assay: Collagen-induced arthritis (CIA) model: clinical scores and paw volume
Assay type: in vivo, Lewis rats
Settings: for Animal paw volume / Animal paw volume percent change (%): individual animals; for Overall Clinical Score: individual animals 1-8

Structure (SMILES): Cn1cc(-c2ccccc2)c(-c2cn(C)c(=O)c3[nH]c(-c4cnn(C(F)(F)F)c4)cc23)cc1=O [Compound A, 6-methyl-4-(1-methyl-2-oxo-5-phenyl-1,2-dihydropyridin-4-yl)-2-(1-(trifluoromethyl)-1H-pyrazol-4-yl)-1,6-dihydro-7H-pyrrolo[2,3-c]pyridin-7-one]
- Animal paw volume (Day 13, L paw, Group 7 (CIA + Compound A 10 mg/kg), 10 mg/kg): 1.37 mL and 1.36 mL and 1.43 mL and 1.41 mL and 1.66 mL and 1.39 mL and 1.32 mL and 1.38 mL
- Animal paw volume (Day 13, R paw, Group 5 (CIA + Compound A 1 mg/kg), 1 mg/kg): 1.40 mL and 1.38 mL and 1.36 mL and 1.44 mL (2×) and 1.58 mL and 1.37 mL and 1.52 mL
- Animal paw volume (Day 13, R paw, Group 6 (CIA + Compound A 3 mg/kg), 3 mg/kg): 1.37 mL (2×) and 1.36 mL (2×) and 1.43 mL and 1.39 mL and 1.38 mL and 1.54 mL
- Animal paw volume (Day 13, R paw, Group 7 (CIA + Compound A 10 mg/kg), 10 mg/kg): 1.34 mL (2×) and 1.41 mL and 1.60 mL and 1.56 mL and 1.37 mL and 1.35 mL and 1.36 mL
- Animal paw volume percent change (%) (Day 14, L paw, group 5 CIA + Compound A 1 mg/kg, 1 mg/kg): 5.95% and 8.43% and 34.11% and 9.59% and 18.87% and 9.74% and 23.40% and 12.83%
- Animal paw volume percent change (%) (Day 14, L paw, group 6 CIA + Compound A 3 mg/kg, 3 mg/kg): 9.89% (2×) and 9.34% and 2.93% and 15.71% and 5.24% and 6.49% and 17.62%
- Animal paw volume percent change (%) (Day 14, L paw, group 7 CIA + Compound A 10 mg/kg, 10 mg/kg): 5.75% and 10.12% and 13.58% and 5.20% and 24.54% and 10.57% and 2.33% and 5.36%
- Animal paw volume percent change (%) (Day 14, R paw, group 5 CIA + Compound A 1 mg/kg, 1 mg/kg): 5.20% and 6.90% and 15.06% and 10.18% and 20.38% and 8.86% and 9.89% and 17.36%
- Animal paw volume percent change (%) (Day 14, R paw, group 6 CIA + Compound A 3 mg/kg, 3 mg/kg): 3.77% and 9.34% and 3.02% and 5.95% and 13.51% and 7.49% and 6.90% and 31.27%
- Animal paw volume percent change (%) (Day 14, R paw, group 7 CIA + Compound A 10 mg/kg, 10 mg/kg): 3.07% and 6.23% and 7.20% and 28.73% and 20.52% and 3.00% and 6.61% and 3.86%
- Overall Clinical Score (Day 14, CIA + Compound A 3 mg/kg, 3 mg/kg): 1 and 3
- Overall Clinical Score (Day 14, CIA + Compound A 10 mg/kg, 10 mg/kg): 0 (5×) and 1 and 2 (2×)
- Animal paw volume (Day 14, L paw, Group 5 (CIA + Compound A 1 mg/kg), 1 mg/kg): 1.43 mL and 1.42 mL and 1.73 mL and 1.49 mL and 1.58 mL and 1.47 mL and 1.64 mL and 1.50 mL
- Animal paw volume (Day 14, L paw, Group 6 (CIA + Compound A 3 mg/kg), 3 mg/kg): 1.45 mL (2×) and 1.41 mL (3×) and 1.51 mL and 1.40 mL and 1.54 mL
- Animal paw volume (Day 14, L paw, Group 7 (CIA + Compound A 10 mg/kg), 10 mg/kg): 1.38 mL (2×) and 1.42 mL (2×) and 1.51 mL and 1.68 mL and 1.47 mL and 1.32 mL
- Animal paw volume (Day 14, R paw, Group 5 (CIA + Compound A 1 mg/kg), 1 mg/kg): 1.42 mL and 1.40 mL and 1.49 mL and 1.52 mL and 1.60 mL and 1.48 mL and 1.45 mL and 1.56 mL
- Animal paw volume (Day 14, R paw, Group 6 (CIA + Compound A 3 mg/kg), 3 mg/kg): 1.38 mL and 1.41 mL and 1.37 mL and 1.43 mL and 1.47 mL and 1.44 mL and 1.40 mL and 1.70 mL
- Animal paw volume (Day 14, R paw, Group 7 (CIA + Compound A 10 mg/kg), 10 mg/kg): 1.35 mL (2×) and 1.37 mL (2×) and 1.42 mL and 1.73 mL and 1.62 mL and 1.38 mL
- Animal paw volume percent change (%) (Day 15, L paw, group 5 CIA + Compound A 1 mg/kg, 1 mg/kg): 5.95%
- Animal paw volume percent change (%) (Day 15, L paw, group 6 CIA + Compound A 3 mg/kg, 3 mg/kg): 13.36% and 19.54%
- Animal paw volume percent change (%) (Day 15, L paw, group 7 CIA + Compound A 10 mg/kg, 10 mg/kg): 23.75% and 10.12% and 15.09% and 31.23% and 28.62% and 11.32% and 9.34% and 6.13%
- Animal paw volume percent change (%) (Day 15, R paw, group 5 CIA + Compound A 1 mg/kg, 1 mg/kg): 5.95%
- Animal paw volume percent change (%) (Day 15, R paw, group 6 CIA + Compound A 3 mg/kg, 3 mg/kg): 6.90% and 30.89%
- Animal paw volume percent change (%) (Day 15, R paw, group 7 CIA + Compound A 10 mg/kg, 10 mg/kg): 15.33% and 9.34% (2×) and 5.68% and 31.72% and 33.96% and 1.50% and 6.95%
- Overall Clinical Score (Day 15, CIA + Compound A 3 mg/kg, 3 mg/kg): 3 and 2 (2×)
- Overall Clinical Score (Day 15, CIA + Compound A 10 mg/kg, 10 mg/kg): 2 and 0 (4×) and 1 and 4 and 3
- Animal paw volume (Day 15, L paw, Group 5 (CIA + Compound A 1 mg/kg), 1 mg/kg): 1.43 mL
- Animal paw volume (Day 15, L paw, Group 6 (CIA + Compound A 3 mg/kg), 3 mg/kg): 1.56 mL
- Animal paw volume (Day 15, L paw, Group 7 (CIA + Compound A 10 mg/kg), 10 mg/kg): 1.62 mL and 1.42 mL and 1.53 mL and 1.77 mL and 1.73 mL and 1.48 mL and 1.41 mL and 1.39 mL
- Animal paw volume (Day 15, R paw, Group 5 (CIA + Compound A 1 mg/kg), 1 mg/kg): 1.43 mL
- Animal paw volume (Day 15, R paw, Group 6 (CIA + Compound A 3 mg/kg), 3 mg/kg): 1.40 mL and 1.70 mL
- Animal paw volume (Day 15, R paw, Group 7 (CIA + Compound A 10 mg/kg), 10 mg/kg): 1.51 mL and 1.41 mL (2×) and 1.40 mL and 1.77 mL and 1.80 mL and 1.36 mL and 1.39 mL
- Animal paw volume percent change (%) (Day 18, L paw, group 5 CIA + Compound A 1 mg/kg, 1 mg/kg): 5.20%
- Animal paw volume percent change (%) (Day 18, L paw, group 6 CIA + Compound A 3 mg/kg, 3 mg/kg): 25.19% and 26.82%
- Animal paw volume percent change (%) (Day 18, L paw, group 7 CIA + Compound A 10 mg/kg, 10 mg/kg): 23.75% and 62.26% and 13.58% and 27.51% and 5.20% and 5.66% and 37.35% and 6.13%
- Animal paw volume percent change (%) (Day 18, R paw, group 5 CIA + Compound A 1 mg/kg, 1 mg/kg): 5.95%
- Animal paw volume percent change (%) (Day 18, R paw, group 6 CIA + Compound A 3 mg/kg, 3 mg/kg): 20.69% and 30.12%
- Animal paw volume percent change (%) (Day 18, R paw, group 7 CIA + Compound A 10 mg/kg, 10 mg/kg): 22.22% and 56.81% and 53.41% and 49.63% and 22.01% and 1.50% and 41.25% and 25.48%
- Overall Clinical Score (Day 18, CIA + Compound A 10 mg/kg, 10 mg/kg): 2 (3×) and 6 and 3 and 0 and 4 and 1
- Animal paw volume (Day 18, L paw, Group 5 (CIA + Compound A 1 mg/kg), 1 mg/kg): 1.42 mL
- Animal paw volume (Day 18, L paw, Group 6 (CIA + Compound A 3 mg/kg), 3 mg/kg): 1.64 mL
- Animal paw volume (Day 18, L paw, Group 7 (CIA + Compound A 10 mg/kg), 10 mg/kg): 1.62 mL and 2.09 mL and 1.51 mL and 1.72 mL and 1.42 mL and 1.40 mL and 1.77 mL and 1.39 mL
- Animal paw volume (Day 18, R paw, Group 5 (CIA + Compound A 1 mg/kg), 1 mg/kg): 1.43 mL
- Animal paw volume (Day 18, R paw, Group 6 (CIA + Compound A 3 mg/kg), 3 mg/kg): 1.69 mL
- Animal paw volume (Day 18, R paw, Group 7 (CIA + Compound A 10 mg/kg), 10 mg/kg): 1.60 mL and 2.02 mL and 2.03 mL and 2.01 mL and 1.64 mL and 1.36 mL and 1.82 mL and 1.63 mL
- Animal paw volume percent change (%) (Day 19, L paw, group 5 CIA + Compound A 1 mg/kg, 1 mg/kg): 3.72%
- Animal paw volume percent change (%) (Day 19, L paw, group 6 CIA + Compound A 3 mg/kg, 3 mg/kg): 26.22% and 20.99% and 28.35%

Reference: patent US20260217701A1, “SELECTIVE BET INHIBITORS AND USES THEREOF” (Tay Therapeutics Limited, priority 2022, published 2026)
